From the supplement of paper PMC12823440, “Inhibitors supercharge kinase turnover through native proteolytic circuits” (Nature, 2025)
Counter-ions that a name gives are not always drawn. Some of the results follow. The calls rarely recur for the same compound in another form.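 Kinases, fused to nanoluciferase, were expressed in K562 cells; luminescence was measured every 4 h from 2 to 18 h as percent of control (DMSO = 100%, positive control = 0%). A time point is decreased if signal falls significantly (2 sigma). Hits were called by the authors by a rule that is not shown; the count of time points alone does not decide it.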

Amino acid sequences for entries named in this document (tags omitted). A change or cut given only in a name is not applied to a line headed by its entry.
UniProt P06239: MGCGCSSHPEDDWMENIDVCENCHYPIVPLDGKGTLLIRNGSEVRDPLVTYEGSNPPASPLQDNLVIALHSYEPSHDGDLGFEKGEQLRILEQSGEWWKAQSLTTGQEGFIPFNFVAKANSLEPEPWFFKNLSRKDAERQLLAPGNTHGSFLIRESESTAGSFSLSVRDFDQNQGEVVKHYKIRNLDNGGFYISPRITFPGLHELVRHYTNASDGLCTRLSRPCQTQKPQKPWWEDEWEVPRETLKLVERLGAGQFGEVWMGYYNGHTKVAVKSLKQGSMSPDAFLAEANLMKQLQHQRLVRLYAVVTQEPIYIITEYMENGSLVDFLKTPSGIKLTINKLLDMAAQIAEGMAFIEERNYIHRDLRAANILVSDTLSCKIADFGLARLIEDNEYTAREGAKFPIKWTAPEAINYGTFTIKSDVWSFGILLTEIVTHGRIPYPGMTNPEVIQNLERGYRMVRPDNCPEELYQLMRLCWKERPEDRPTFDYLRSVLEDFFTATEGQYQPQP
UniProt P53671: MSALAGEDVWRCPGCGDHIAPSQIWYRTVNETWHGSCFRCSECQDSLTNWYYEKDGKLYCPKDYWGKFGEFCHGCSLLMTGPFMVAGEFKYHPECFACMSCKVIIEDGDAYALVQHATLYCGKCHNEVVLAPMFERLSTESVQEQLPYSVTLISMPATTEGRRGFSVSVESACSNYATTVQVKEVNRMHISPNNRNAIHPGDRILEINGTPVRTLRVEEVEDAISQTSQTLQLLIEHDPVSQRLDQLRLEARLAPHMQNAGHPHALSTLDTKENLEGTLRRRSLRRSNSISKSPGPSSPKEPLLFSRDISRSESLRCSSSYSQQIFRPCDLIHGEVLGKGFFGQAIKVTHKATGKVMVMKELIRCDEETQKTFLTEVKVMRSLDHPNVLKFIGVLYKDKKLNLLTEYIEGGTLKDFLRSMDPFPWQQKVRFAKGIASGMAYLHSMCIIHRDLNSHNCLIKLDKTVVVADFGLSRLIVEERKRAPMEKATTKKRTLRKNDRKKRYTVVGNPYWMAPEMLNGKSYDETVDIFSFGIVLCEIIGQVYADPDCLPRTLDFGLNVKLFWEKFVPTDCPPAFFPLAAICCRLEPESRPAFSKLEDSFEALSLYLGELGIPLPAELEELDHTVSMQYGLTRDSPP
UniProt Q8IWU2: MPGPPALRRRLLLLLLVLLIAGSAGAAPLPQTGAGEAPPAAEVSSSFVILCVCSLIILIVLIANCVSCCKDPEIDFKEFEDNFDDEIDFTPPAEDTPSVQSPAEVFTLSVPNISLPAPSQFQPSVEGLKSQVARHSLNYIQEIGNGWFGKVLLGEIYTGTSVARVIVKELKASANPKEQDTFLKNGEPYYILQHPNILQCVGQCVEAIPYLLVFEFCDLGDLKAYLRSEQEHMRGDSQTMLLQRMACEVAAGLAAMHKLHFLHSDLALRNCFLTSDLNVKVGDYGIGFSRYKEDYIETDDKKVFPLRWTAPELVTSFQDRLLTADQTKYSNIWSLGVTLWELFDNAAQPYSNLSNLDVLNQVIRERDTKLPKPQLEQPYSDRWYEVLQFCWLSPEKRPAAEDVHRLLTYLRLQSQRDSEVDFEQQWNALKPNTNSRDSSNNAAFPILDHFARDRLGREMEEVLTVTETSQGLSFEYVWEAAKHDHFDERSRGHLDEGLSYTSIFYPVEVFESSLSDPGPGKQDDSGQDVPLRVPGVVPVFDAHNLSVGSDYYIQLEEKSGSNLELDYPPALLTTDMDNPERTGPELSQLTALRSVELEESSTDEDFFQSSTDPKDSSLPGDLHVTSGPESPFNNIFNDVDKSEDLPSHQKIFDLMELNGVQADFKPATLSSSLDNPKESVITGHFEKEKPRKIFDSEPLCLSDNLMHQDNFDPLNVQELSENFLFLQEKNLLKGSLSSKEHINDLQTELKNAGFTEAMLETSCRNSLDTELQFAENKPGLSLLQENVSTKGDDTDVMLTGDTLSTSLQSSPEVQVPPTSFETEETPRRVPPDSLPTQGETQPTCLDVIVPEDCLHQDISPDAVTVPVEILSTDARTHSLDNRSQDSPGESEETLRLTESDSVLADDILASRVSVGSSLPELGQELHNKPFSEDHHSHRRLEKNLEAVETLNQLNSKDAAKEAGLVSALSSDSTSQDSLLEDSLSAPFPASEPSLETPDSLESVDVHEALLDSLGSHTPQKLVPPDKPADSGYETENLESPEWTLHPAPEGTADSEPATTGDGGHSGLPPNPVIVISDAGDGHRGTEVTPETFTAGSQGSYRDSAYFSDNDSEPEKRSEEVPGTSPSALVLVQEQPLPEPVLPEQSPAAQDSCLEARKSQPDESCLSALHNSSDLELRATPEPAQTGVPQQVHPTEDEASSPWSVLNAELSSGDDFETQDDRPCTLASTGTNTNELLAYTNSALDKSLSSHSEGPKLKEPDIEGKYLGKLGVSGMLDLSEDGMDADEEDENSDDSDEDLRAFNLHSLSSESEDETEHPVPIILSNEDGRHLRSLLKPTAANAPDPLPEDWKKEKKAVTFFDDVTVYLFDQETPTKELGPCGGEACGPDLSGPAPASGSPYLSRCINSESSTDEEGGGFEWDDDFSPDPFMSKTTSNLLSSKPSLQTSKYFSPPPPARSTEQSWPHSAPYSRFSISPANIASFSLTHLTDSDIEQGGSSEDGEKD
UniProt P07948: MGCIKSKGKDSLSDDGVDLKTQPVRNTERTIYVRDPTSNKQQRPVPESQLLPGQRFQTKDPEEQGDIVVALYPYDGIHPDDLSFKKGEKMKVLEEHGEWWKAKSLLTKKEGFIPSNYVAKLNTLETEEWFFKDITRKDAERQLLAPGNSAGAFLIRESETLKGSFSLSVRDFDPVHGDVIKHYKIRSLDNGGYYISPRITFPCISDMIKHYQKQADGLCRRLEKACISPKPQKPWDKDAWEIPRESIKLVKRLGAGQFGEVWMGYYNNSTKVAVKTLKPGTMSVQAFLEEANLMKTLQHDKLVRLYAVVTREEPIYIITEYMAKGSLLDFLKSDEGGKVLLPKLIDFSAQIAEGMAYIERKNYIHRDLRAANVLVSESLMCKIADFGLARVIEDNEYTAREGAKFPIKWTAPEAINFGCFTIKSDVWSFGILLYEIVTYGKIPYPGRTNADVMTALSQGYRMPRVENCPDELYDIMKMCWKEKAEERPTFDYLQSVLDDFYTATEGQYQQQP
UniProt P28482, whole entry: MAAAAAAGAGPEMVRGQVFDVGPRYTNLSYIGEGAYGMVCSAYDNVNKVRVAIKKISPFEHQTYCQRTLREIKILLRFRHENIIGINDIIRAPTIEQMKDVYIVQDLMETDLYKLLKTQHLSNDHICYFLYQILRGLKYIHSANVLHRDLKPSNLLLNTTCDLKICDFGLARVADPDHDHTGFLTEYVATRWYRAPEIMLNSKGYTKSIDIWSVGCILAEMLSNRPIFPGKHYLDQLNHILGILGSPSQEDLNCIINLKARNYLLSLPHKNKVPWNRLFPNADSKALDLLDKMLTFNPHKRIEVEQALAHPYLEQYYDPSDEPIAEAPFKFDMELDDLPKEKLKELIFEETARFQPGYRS
UniProt P31152, whole entry: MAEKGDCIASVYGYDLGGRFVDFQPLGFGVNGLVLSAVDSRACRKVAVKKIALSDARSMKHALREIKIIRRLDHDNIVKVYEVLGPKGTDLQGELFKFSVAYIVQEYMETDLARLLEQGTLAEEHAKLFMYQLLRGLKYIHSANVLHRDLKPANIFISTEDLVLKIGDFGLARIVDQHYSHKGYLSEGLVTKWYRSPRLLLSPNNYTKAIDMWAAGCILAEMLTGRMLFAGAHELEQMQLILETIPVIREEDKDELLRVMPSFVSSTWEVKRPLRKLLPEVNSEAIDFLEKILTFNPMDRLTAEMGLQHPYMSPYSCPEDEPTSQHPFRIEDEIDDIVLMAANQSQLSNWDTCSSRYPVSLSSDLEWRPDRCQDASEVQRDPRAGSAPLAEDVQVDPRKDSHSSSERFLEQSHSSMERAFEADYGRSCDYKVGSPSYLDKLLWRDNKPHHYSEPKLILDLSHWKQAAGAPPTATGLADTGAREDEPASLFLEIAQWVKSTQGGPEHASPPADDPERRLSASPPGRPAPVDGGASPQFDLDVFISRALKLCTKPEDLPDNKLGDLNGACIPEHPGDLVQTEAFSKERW
UniProt Q9BUB5: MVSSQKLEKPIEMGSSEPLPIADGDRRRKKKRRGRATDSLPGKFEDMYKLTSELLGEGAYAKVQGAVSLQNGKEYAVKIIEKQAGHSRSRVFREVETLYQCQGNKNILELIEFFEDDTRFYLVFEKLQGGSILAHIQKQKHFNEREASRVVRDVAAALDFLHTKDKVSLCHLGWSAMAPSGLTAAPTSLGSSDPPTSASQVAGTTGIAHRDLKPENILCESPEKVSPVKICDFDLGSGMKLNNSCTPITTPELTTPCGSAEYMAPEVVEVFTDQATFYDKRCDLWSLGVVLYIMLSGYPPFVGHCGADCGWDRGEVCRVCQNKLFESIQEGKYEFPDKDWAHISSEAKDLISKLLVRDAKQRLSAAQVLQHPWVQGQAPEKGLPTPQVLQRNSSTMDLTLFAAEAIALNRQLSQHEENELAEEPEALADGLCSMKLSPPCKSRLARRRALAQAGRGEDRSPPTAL
UniProt Q96KB5: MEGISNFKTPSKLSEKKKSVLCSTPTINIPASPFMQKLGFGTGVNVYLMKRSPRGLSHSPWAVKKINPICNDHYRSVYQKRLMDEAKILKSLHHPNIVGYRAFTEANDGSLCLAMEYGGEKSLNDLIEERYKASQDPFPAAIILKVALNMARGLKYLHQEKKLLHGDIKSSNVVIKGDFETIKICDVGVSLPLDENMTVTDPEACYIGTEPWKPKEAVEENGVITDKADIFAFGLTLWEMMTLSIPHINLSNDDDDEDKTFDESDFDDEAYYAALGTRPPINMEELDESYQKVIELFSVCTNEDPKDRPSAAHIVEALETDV
UniProt P09619, whole entry: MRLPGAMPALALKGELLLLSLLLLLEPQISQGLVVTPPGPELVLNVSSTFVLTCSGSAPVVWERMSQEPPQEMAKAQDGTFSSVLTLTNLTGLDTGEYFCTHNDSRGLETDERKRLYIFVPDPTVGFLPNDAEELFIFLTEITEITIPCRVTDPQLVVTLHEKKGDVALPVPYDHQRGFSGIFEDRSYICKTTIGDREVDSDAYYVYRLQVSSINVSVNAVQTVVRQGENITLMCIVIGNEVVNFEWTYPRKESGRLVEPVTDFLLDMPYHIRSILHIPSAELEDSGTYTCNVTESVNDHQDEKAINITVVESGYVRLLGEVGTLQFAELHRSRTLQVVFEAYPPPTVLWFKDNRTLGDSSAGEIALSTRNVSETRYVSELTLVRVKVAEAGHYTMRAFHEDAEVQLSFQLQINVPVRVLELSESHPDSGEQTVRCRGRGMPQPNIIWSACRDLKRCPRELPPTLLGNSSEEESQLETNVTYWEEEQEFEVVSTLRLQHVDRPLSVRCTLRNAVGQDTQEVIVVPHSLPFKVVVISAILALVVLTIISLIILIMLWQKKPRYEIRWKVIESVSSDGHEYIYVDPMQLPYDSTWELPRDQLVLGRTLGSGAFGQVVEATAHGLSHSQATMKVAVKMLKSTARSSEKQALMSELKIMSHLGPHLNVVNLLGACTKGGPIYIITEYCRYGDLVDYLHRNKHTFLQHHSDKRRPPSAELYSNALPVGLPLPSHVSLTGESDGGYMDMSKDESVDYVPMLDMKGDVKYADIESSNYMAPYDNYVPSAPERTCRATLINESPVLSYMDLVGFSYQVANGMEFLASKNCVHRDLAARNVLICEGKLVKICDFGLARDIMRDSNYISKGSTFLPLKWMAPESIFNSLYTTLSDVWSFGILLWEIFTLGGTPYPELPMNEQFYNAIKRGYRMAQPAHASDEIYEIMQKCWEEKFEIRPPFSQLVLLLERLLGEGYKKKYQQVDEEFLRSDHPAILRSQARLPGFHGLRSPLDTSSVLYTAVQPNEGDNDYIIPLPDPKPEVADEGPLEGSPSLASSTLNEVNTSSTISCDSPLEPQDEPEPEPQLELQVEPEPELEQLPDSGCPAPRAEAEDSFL
UniProt Q15118, whole entry, looked up: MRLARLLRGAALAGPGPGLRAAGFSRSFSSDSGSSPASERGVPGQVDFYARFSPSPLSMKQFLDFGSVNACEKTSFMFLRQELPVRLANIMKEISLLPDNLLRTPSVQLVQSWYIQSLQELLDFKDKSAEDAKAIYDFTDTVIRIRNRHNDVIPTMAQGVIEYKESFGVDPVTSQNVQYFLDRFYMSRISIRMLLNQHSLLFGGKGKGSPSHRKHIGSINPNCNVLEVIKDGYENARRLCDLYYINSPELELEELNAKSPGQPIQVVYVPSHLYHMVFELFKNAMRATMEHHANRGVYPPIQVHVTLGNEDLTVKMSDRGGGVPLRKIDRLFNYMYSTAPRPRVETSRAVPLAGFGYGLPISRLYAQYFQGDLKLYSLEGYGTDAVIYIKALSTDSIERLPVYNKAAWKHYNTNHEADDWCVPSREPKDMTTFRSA

What was measured:
Test in all cases: kinase-Nluc reporter destabilization hit call (1 = scored as downregulated) (binary); higher = compound decreases kinase abundance
Details in all cases: K562; 2-18 h
IRAK3 = IRAK3 (UniProt Q9Y616)
JAK1 = JAK1 (UniProt P23458)
LCK = LCK (UniProt P06239)
LIMK1 = LIMK1 (UniProt P53667)
LIMK2 = LIMK2 (UniProt P53671)
LMTK2 = LMTK2 (UniProt Q8IWU2)
LYN = LYN (UniProt P07948)
MAP2K1 = MAP2K1 (UniProt Q02750)
MAP2K2 = MAP2K2 (UniProt P36507)
MAP4K2 = MAP4K2 (UniProt Q12851)
MAPK1 = MAPK1 (UniProt P28482)
MAPK4 = MAPK4 (UniProt P31152)
MAPKAPK2 = MAPKAPK2 (UniProt P49137)
MKNK1 = MKNK1 (UniProt Q9BUB5)
NTRK2 = NTRK2 (UniProt Q16620)
NTRK3 = NTRK3 (UniProt Q16288)
PAK4 = PAK4 (UniProt O96013)
PBK = PBK (UniProt Q96KB5)
PDGFRB = PDGFRB (UniProt P09619)
PDK1 = PDK1 (UniProt Q15118)

Measured: kinase-Nluc reporter destabilization hit call

CCN1CCN(Cc2ccc(Nc3ncc(F)c(-c4cc(F)c5nc(C)n(C(C)C)c5c4)n3)nc2)CC1 [Abemaciclib] (2 µM)
inactive: IRAK3 = 0 | JAK1 = 0 | LCK 0 | LIMK1 = 0 | LIMK2 = 0 | LMTK2 = 0 | LYN 0 | MAP2K1 = 0 | MAP2K2 = 0 | MAP4K2 = 0 | MAPK1 = 0 | MAPK4 = 0 | MAPKAPK2 = 0 | MKNK1 = 0 | NTRK2 = 0 | NTRK3 = 0 | PAK4 = 0 | PBK 0 | PDGFRB 0 | PDK1 = 0

COc1cc2c(cc1OC)CN(S(=O)(=O)c1ccc(OC)c(N3CCN(C(=O)c4ccc(F)cc4C(F)(F)F)CC3)c1)CC2 (10 µM)
inactive: IRAK3 = 0 | JAK1 = 0 | LCK 0 | LIMK1 = 0 | LIMK2 = 0 | LMTK2 = 0 | LYN 0 | MAP2K1 = 0 | MAP2K2 = 0 | MAP4K2 = 0 | MAPK1 = 0 | MAPK4 = 0 | MAPKAPK2 = 0 | MKNK1 = 0 | NTRK2 = 0 | NTRK3 = 0 | PAK4 = 0 | PBK 0 | PDGFRB 0 | PDK1 = 0

CCS(=O)(=O)c1ncc(Cl)c(C(=O)N(Cc2ccc(Cl)cc2)Cc2ccco2)n1 (2.5 µM)
inactive: IRAK3 = 0 | JAK1 = 0 | LCK 0 | LIMK1 = 0 | LIMK2 = 0 | LMTK2 = 0 | LYN 0 | MAP2K1 = 0 | MAP2K2 = 0 | MAP4K2 = 0 | MAPK1 = 0 | MAPK4 = 0 | MAPKAPK2 = 0 | MKNK1 = 0 | NTRK2 = 0 | NTRK3 = 0 | PAK4 = 0 | PBK 0 | PDGFRB 0 | PDK1 = 0

Nc1cc(C(F)(F)F)c(-c2cc(N3CCOCC3)nc(N3CCOCC3)n2)cn1 [Buparlisib (Hydrochloride)] (2.5 µM)
inactive: IRAK3 = 0 | JAK1 = 0 | LCK 0 | LIMK1 = 0 | LIMK2 = 0 | LMTK2 = 0 | LYN 0 | MAP2K1 = 0 | MAP2K2 = 0 | MAP4K2 = 0 | MAPK1 = 0 | MAPK4 = 0 | MAPKAPK2 = 0 | MKNK1 = 0 | NTRK2 = 0 | NTRK3 = 0 | PAK4 = 0 | PBK 0 | PDGFRB 0 | PDK1 = 0

2 entries drawn at random from the list so far:
CCN1CCN(Cc2ccc(Nc3ncc(F)c(-c4cc(F)c5nc(C)n(C(C)C)c5c4)n3)nc2)CC1 [Abemaciclib] (2 µM)
inactive: IRAK3 = 0 | JAK1 = 0 | LCK 0 | LIMK1 = 0 | LIMK2 = 0 | LMTK2 = 0 | LYN 0 | MAP2K1 = 0 | MAP2K2 = 0 | MAP4K2 = 0 | MAPK1 = 0 | MAPK4 = 0 | MAPKAPK2 = 0 | MKNK1 = 0 | NTRK2 = 0 | NTRK3 = 0 | PAK4 = 0 | PBK 0 | PDGFRB 0 | PDK1 = 0

COc1cc2c(cc1OC)CN(S(=O)(=O)c1ccc(OC)c(N3CCN(C(=O)c4ccc(F)cc4C(F)(F)F)CC3)c1)CC2 (10 µM)
inactive: IRAK3 = 0 | JAK1 = 0 | LCK 0 | LIMK1 = 0 | LIMK2 = 0 | LMTK2 = 0 | LYN 0 | MAP2K1 = 0 | MAP2K2 = 0 | MAP4K2 = 0 | MAPK1 = 0 | MAPK4 = 0 | MAPKAPK2 = 0 | MKNK1 = 0 | NTRK2 = 0 | NTRK3 = 0 | PAK4 = 0 | PBK 0 | PDGFRB 0 | PDK1 = 0

Additional entries follow.

Cc1[nH]c(/C=C2\C(=O)Nc3ccccc32)c(C)c1CCC(=O)O [Orantinib] (10 µM)
inactive: IRAK3 = 0 | JAK1 = 0 | LCK 0 | LIMK1 = 0 | LIMK2 = 0 | LMTK2 = 0 | LYN 0 | MAP2K1 = 0 | MAP2K2 = 0 | MAP4K2 = 0 | MAPK1 = 0 | MAPK4 = 0 | MAPKAPK2 = 0 | MKNK1 = 0 | NTRK2 = 0 | NTRK3 = 0 | PAK4 = 0 | PBK 0 | PDGFRB 0 | PDK1 = 0

COc1ccc2c(OCc3nnc4ccc(-c5ccccc5)nn34)ccnc2c1 (2 µM)
inactive: IRAK3 = 0 | JAK1 = 0 | LCK 0 | LIMK1 = 0 | LIMK2 = 0 | LMTK2 = 0 | LYN 0 | MAP2K1 = 0 | MAP2K2 = 0 | MAP4K2 = 0 | MAPK1 = 0 | MAPK4 = 0 | MAPKAPK2 = 0 | MKNK1 = 0 | NTRK2 = 0 | NTRK3 = 0 | PAK4 = 0 | PBK 0 | PDGFRB 0 | PDK1 = 0

Cc1ccc(C(=O)Nc2ccc(Oc3cc4cnn(C)c4cc3-c3cn[nH]c3)c(F)c2)c(=O)n1-c1ccc(F)cc1 [Merestinib dihydrochloride] (2.5 µM)
inactive: IRAK3 = 0 | JAK1 = 0 | LCK 0 | LIMK1 = 0 | LIMK2 = 0 | LMTK2 = 0 | LYN 0 | MAP2K1 = 0 | MAP2K2 = 0 | MAP4K2 = 0 | MAPK1 = 0 | MAPK4 = 0 | MAPKAPK2 = 0 | MKNK1 = 0 | NTRK2 = 0 | NTRK3 = 0 | PAK4 = 0 | PBK 0 | PDGFRB 0 | PDK1 = 0

COc1cc(Nc2ncc(F)c(Nc3ccc4c(n3)NC(=O)C(C)(C)O4)n2)cc(OC)c1OC [R406 (free base)] (10 µM)
inactive: IRAK3 = 0 | JAK1 = 0 | LIMK1 = 0 | LIMK2 = 0 | LMTK2 = 0 | LYN 0 | MAP2K1 = 0 | MAP2K2 = 0 | MAP4K2 = 0 | MAPK1 = 0 | MAPK4 = 0 | MAPKAPK2 = 0 | MKNK1 = 0 | NTRK2 = 0 | PAK4 = 0 | PBK 0 | PDGFRB 0 | PDK1 = 0

COc1cc2c(N3CCN(C(=O)Nc4ccc(OC(C)C)cc4)CC3)ncnc2cc1OCCCN1CCCCC1 [Tandutinib] (10 µM)
inactive: IRAK3 = 0 | JAK1 = 0 | LCK 0 | LIMK1 = 0 | LIMK2 = 0 | LMTK2 = 0 | LYN 0 | MAP2K1 = 0 | MAP2K2 = 0 | MAP4K2 = 0 | MAPK1 = 0 | MAPK4 = 0 | MAPKAPK2 = 0 | MKNK1 = 0 | NTRK2 = 0 | PAK4 = 0 | PBK 0 | PDK1 = 0

CC(C)(C)c1cc(O)ccc1O (10 µM)
inactive: IRAK3 = 0 | JAK1 = 0 | LCK 0 | LIMK1 = 0 | LIMK2 = 0 | LMTK2 = 0 | LYN 0 | MAP2K1 = 0 | MAP2K2 = 0 | MAP4K2 = 0 | MAPK1 = 0 | MAPK4 = 0 | MAPKAPK2 = 0 | MKNK1 = 0 | NTRK2 = 0 | NTRK3 = 0 | PAK4 = 0 | PBK 0 | PDGFRB 0 | PDK1 = 0

FC(F)(F)c1ccc(CNc2ccc(Cc3c[nH]c4ncccc34)cn2)cc1 (10 µM)
inactive: IRAK3 = 0 | JAK1 = 0 | LCK 0 | LIMK1 = 0 | LIMK2 = 0 | LMTK2 = 0 | LYN 0 | MAP2K1 = 0 | MAP2K2 = 0 | MAP4K2 = 0 | MAPK1 = 0 | MAPK4 = 0 | MAPKAPK2 = 0 | MKNK1 = 0 | NTRK2 = 0 | NTRK3 = 0 | PAK4 = 0 | PBK 0 | PDGFRB 0 | PDK1 = 0

CN(C)C(=O)Cn1cc(-c2ccc(-c3cncc4ccccc34)cc2)cn1 (10 µM)
inactive: IRAK3 = 0 | JAK1 = 0 | LCK 0 | LIMK1 = 0 | LIMK2 = 0 | LMTK2 = 0 | LYN 0 | MAP2K1 = 0 | MAP2K2 = 0 | MAP4K2 = 0 | MAPK1 = 0 | MAPK4 = 0 | MAPKAPK2 = 0 | MKNK1 = 0 | NTRK2 = 0 | NTRK3 = 0 | PAK4 = 0 | PBK 0 | PDGFRB 0 | PDK1 = 0

COc1cc(/C=C/C(=O)NCC(O)c2ccc(O)cc2)ccc1O (centres undefined) [N-Feruloyloctopamine] (2.5 µM)
inactive: IRAK3 = 0 | JAK1 = 0 | LCK 0 | LIMK1 = 0 | LIMK2 = 0 | LMTK2 = 0 | LYN 0 | MAP2K1 = 0 | MAP2K2 = 0 | MAP4K2 = 0 | MAPK1 = 0 | MAPK4 = 0 | MAPKAPK2 = 0 | MKNK1 = 0 | NTRK2 = 0 | NTRK3 = 0 | PAK4 = 0 | PBK 0 | PDGFRB 0 | PDK1 = 0

Oc1cc2c(cc1O)C(Cc1cccc3ccccc13)NCC2 (centres undefined) (10 µM)
inactive: IRAK3 = 0 | JAK1 = 0 | LCK 0 | LIMK1 = 0 | LIMK2 = 0 | LMTK2 = 0 | LYN 0 | MAP2K1 = 0 | MAP2K2 = 0 | MAP4K2 = 0 | MAPK1 = 0 | MAPK4 = 0 | MAPKAPK2 = 0 | MKNK1 = 0 | NTRK2 = 0 | NTRK3 = 0 | PAK4 = 0 | PBK 0 | PDGFRB 0 | PDK1 = 0

COc1cc(Nc2ncc(F)c(Nc3ccc4c(n3)NC(=O)C(C)(C)O4)n2)cc(OC)c1OC (10 µM)
inactive: IRAK3 = 0 | JAK1 = 0 | LIMK1 = 0 | LIMK2 = 0 | LMTK2 = 0 | LYN 0 | MAP2K1 = 0 | MAP2K2 = 0 | MAP4K2 = 0 | MAPK1 = 0 | MAPK4 = 0 | MAPKAPK2 = 0 | MKNK1 = 0 | NTRK2 = 0 | PAK4 = 0 | PBK 0 | PDGFRB 0 | PDK1 = 0

COc1ccccc1-c1cc(Nc2cccc(CS(N)(=O)=O)c2)ncn1 (10 µM)
inactive: IRAK3 = 0 | JAK1 = 0 | LCK 0 | LIMK1 = 0 | LIMK2 = 0 | LMTK2 = 0 | LYN 0 | MAP2K1 = 0 | MAP2K2 = 0 | MAP4K2 = 0 | MAPK1 = 0 | MAPK4 = 0 | MAPKAPK2 = 0 | MKNK1 = 0 | NTRK2 = 0 | NTRK3 = 0 | PAK4 = 0 | PBK 0 | PDGFRB 0 | PDK1 = 0

O=C(NOCC(O)CO)c1cc(Br)c(F)c(F)c1Nc1ccc(I)cc1F (centres undefined) (2.5 µM)
inactive: IRAK3 = 0 | JAK1 = 0 | LCK 0 | LIMK1 = 0 | LIMK2 = 0 | LMTK2 = 0 | LYN 0 | MAP2K1 = 0 | MAP2K2 = 0 | MAP4K2 = 0 | MAPK1 = 0 | MAPK4 = 0 | MAPKAPK2 = 0 | MKNK1 = 0 | NTRK2 = 0 | NTRK3 = 0 | PAK4 = 0 | PBK 0 | PDGFRB 0 | PDK1 = 0
